No constants are given. Whether binding was seen depends on the method and setting. Binding seen in cells or lysates may run through a third protein. Binding calls can cover weak binding; strength is not graded here.
Target: TsmK with STREP tag (TsmK^STREP) (Acinetobacter baumannii ATCC 17978)
Test: pull-down; two proteins co-produced in E. coli BL21(DE3); detergent-solubilised extract (DDM, DM-NPG) on Strep- or His-Trap-HP, 50 mM Tris-HCl pH 8.0, 50 mM NaCl, 0.05% DM-NPG; eluate immunoblotted

B1: TssK (co-produced in E. coli) (protein, UniProt R9RHI9 1-454)
chain: MFKAEKVLWGEGLFLRPQHFQIQDTYHEQRLNHTVRAVVPFSYGVQKLSFDEAQLSTHILALETVEMIWQDGEIYQAPAYDLLPEPILLDELNLRGEMVIYLALPLLQANKQNLIDQNQSQKGRYQSHLVETHDLFTNATEADISLLRRRAVFKLLDVNSNPDHNLDGFLYLPIGKIKRQSSGAFEIDRKFIPPILHVDASETLVSNLKRTLNVIKAKIKTIQTNNRENEQKLIEFRSGDIVSFWLVNALNTAHAGLNHFLQYPQIHPERLFFELLRLAGSLLTFSTAYEVDQLPAYKHHNLQESFTQLDTILRDLLDTIISSRYISIALKEIRPSYWVGSLETDKITRDTRLYIAVSSSAMQTHELIQIVPLRFKIGSTLDVEQRVVAALPAIPLHHLIQVPTAIPVRSGVSYFEIEPHHELYQRMLDSETICIYVPAGFQDISIELIAVMNA
How did the binding turn out when B1 was run?
The binding was “binds”.

From PMC10564176
